Reference: PubChem BioAssay AID290 (DTP/NCI, 2004)
The list shows only some results of the screen, not a fair sample: it is rich in T/C values a quarter to a half above the control, in often repeated tests (any T/C) and in doses without a T/C. Other doses and runs of a compound stand elsewhere. T/C: endpoint of the treated group in % of that of the vehicle group. Schedules are NCI's codes, read here as Q, the interval in days (D) or hours (H), X, the number of doses. Some entries give survivors of the animals treated and no T/C: the source files T/C as zero there, which appears to mark a toxic dose or a test without result, not a measured value. Some survivor counts are full or nearly so, which does not show that the dose was tolerated: the source hardly ever lists a survival T/C far under the control, and the zero likely stands for such cases as well. Counts of survivors are from the toxicity check (mostly the fifth day) where no day follows; animals may have died later. Additions like (4×) give the number of equal values in this list. Some entries were tested several times; the values are given in rising order. Where survival is the endpoint, this PubChem deposit counts one and a half times the control or more as active, and values a quarter to a half above the control carry no call in these data; other NCI protocols may use other cut-offs.

Test system: mice, P1798 lymphosarcoma sc, survival or tumor weight T/C
Assay: NCI In Vivo Anticancer Drug Screen. Data for tumor model P1798 Lymphosarcoma (subcutaneous) in unknown mice
Protocol: The antitumor activity of compounds was measured in mice bearing transplantable tumors. Survival or tumor size were measured and the results are expressed as the measurement made in the treated group (T) divided by the measurement made in the vehicle treated control group (C). The tumor model used in this assay is P1798 Lymphosarcoma (subcutaneous) in unknown mice

[1] = T/C endpoint: mean tumor weight, dose: 1000.0 mg/kg/injection, schedule: Q01DX010 (ip), vehicle: saline, higher T/C = larger tumour

O=c1[nH]cc(F)c(=O)[nH]1
T/C (T/C endpoint: mean tumor weight, dose: 5.0 mg/kg/injection, schedule: Q01DX015 (ip), vehicle: carboxymethylcellulose (CMC), run until all animals had died, higher T/C = larger tumour): 131 % of control | survivor count (T/C endpoint: mean tumor weight, dose: 20.0 mg/kg/injection, schedule: Q01DX010 (ip), vehicle: saline, higher T/C = larger tumour): 4 of 10 | survivor count (T/C endpoint: mean tumor weight, dose: 50.0 mg/kg/injection, schedule: Q01DX010 (ip), vehicle: saline, higher T/C = larger tumour): 0 of 10 | survivor count (T/C endpoint: mean tumor weight, dose: 159.0 mg/kg/injection, schedule: Q01DX001 (ip), vehicle: carboxymethylcellulose (CMC), higher T/C = larger tumour): 6 of 10 | T/C (T/C endpoint: median survival time, dose: 12.5 mg/kg/injection, schedule: Q04DX007 (ip), vehicle: saline, evaluated on day 5, higher T/C = longer survival): 92 and 102 % of control | T/C (T/C endpoint: median survival time, dose: 12.5 mg/kg/injection, schedule: Q04DX007 (ip), vehicle: saline, evaluated on day 53, higher T/C = longer survival): 102 % of control | T/C (T/C endpoint: median survival time, dose: 12.5 mg/kg/injection, schedule: Q04DX007 (ip), vehicle: saline, evaluated on day 58, higher T/C = longer survival): 92 % of control | T/C (T/C endpoint: median survival time, dose: 12.5 mg/kg/injection, schedule: Q04DX007 (ip), vehicle: saline, evaluated on day 60, higher T/C = longer survival): 117 % of control | survivor count (T/C endpoint: median survival time, dose: 20.0 mg/kg/injection, schedule: Q01DX010 (ip), vehicle: saline, higher T/C = longer survival): 8 of 8 | T/C (T/C endpoint: median survival time, dose: 25.0 mg/kg/injection, schedule: Q04DX007 (ip), vehicle: saline, evaluated on day 5, higher T/C = longer survival): 97 and 108 % of control | T/C (T/C endpoint: median survival time, dose: 25.0 mg/kg/injection, schedule: Q04DX007 (ip), vehicle: saline, evaluated on day 53, higher T/C = longer survival): 108 % of control | T/C (T/C endpoint: median survival time, dose: 25.0 mg/kg/injection, schedule: Q04DX007 (ip), vehicle: saline, evaluated on day 58, higher T/C = longer survival): 97 % of control | T/C (T/C endpoint: median survival time, dose: 25.0 mg/kg/injection, schedule: Q04DX007 (ip), vehicle: saline, evaluated on day 60, higher T/C = longer survival): 126 % of control | survivor count (T/C endpoint: median survival time, dose: 40.0 mg/kg/injection, schedule: Q01DX010 (ip), vehicle: saline, higher T/C = longer survival): 8 of 8 | T/C (T/C endpoint: median survival time, dose: 50.0 mg/kg/injection, schedule: Q04DX007 (ip), vehicle: saline, evaluated on day 5, higher T/C = longer survival): 95 and 107 % of control | T/C (T/C endpoint: median survival time, dose: 50.0 mg/kg/injection, schedule: Q04DX007 (ip), vehicle: saline, evaluated on day 53, higher T/C = longer survival): 107 % of control | T/C (T/C endpoint: median survival time, dose: 50.0 mg/kg/injection, schedule: Q04DX007 (ip), vehicle: saline, evaluated on day 58, higher T/C = longer survival): 95 % of control | T/C (T/C endpoint: median survival time, dose: 50.0 mg/kg/injection, schedule: Q04DX007 (ip), vehicle: saline, evaluated on day 60, higher T/C = longer survival): 145 % of control | survivor count (T/C endpoint: median survival time, dose: 80.0 mg/kg/injection, schedule: Q01DX010 (ip), vehicle: saline, higher T/C = longer survival): 8 of 8 | T/C (T/C endpoint: median survival time, dose: 100.0 mg/kg/injection, schedule: Q04DX007 (ip), vehicle: saline, evaluated on day 5, higher T/C = longer survival): 53 and 96 % of control | T/C (T/C endpoint: median survival time, dose: 100.0 mg/kg/injection, schedule: Q04DX007 (ip), vehicle: saline, evaluated on day 58, higher T/C = longer survival): 96 % of control | survivor count (T/C endpoint: median survival time, dose: 100.0 mg/kg/injection, schedule: Q04DX007 (ip), vehicle: saline, higher T/C = longer survival): 10 of 10 (2×) | T/C (T/C endpoint: median survival time, dose: 200.0 mg/kg/injection, schedule: Q04DX007 (ip), vehicle: saline, evaluated on day 5, higher T/C = longer survival): 29 and 96 % of control | T/C (T/C endpoint: median survival time, dose: 200.0 mg/kg/injection, schedule: Q04DX007 (ip), vehicle: saline, evaluated on day 58, higher T/C = longer survival): 96 % of control | survivor count (T/C endpoint: median survival time, dose: 200.0 mg/kg/injection, schedule: Q04DX007 (ip), vehicle: saline, higher T/C = longer survival): 10 of 10 (2×)

S=P(N1CC1)(N1CC1)N1CC1
survivor count (T/C endpoint: mean tumor weight, dose: 5.0 mg/kg/injection, schedule: Q01DX010 (ip), vehicle: saline, higher T/C = larger tumour): 2 of 10 | survivor count (T/C endpoint: median survival time, dose: 6.0 mg/kg/injection, schedule: Q01DX010 (sc), vehicle: water, higher T/C = longer survival): 10 of 10 | survivor count (T/C endpoint: median survival time, dose: 12.0 mg/kg/injection, schedule: Q01DX010 (sc), vehicle: water, higher T/C = longer survival): 10 of 10

C=CC(CN1CC1)OC(C)=O (stereo not drawn)
survivor count (T/C endpoint: mean tumor weight, dose: 12.0 mg/kg/injection, schedule: Q01DX010 (ip), vehicle: saline, higher T/C = larger tumour): 3 of 6

C[C@H](N)C(=O)N[C@@H]1[C@H]2C(=C(O)C[C@@H](O)[C@@H]2O)C(=O)O[C@@H]1C
survivor count [1]: 6 of 10

CCOC(N)=O
survivor count [1]: 0 of 10 and 6 of 10

N#[N+]c1cnc([O-])[nH]c1=O
survivor count (T/C endpoint: mean tumor weight, dose: 20.0 mg/kg/injection, schedule: Q01DX010 (ip), vehicle: carboxymethylcellulose (CMC), higher T/C = larger tumour): 0 of 10 | survivor count (T/C endpoint: mean tumor weight, dose: 40.0 mg/kg/injection, schedule: Q01DX010 (ip), vehicle: carboxymethylcellulose (CMC), higher T/C = larger tumour): 0 of 10
